Results deposited as PubChem BioAssay AID1224827 (NIAID, 2016).
Aim: 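Identify regulators of the macrophage TNF-alpha response to bacterial LPS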 (follow-up of hits). System: RAW264.7 G9 mouse macrophage reporter clone. Reagents: single siRNA against mouse genes, 100 nM siRNA. Timing: siRNA for 2 days, then LPS about 16 h. Treatment: bacterial lipopolysaccharide (LPS), 10 ng/ml, cells fixed after overnight (about 16 h) stimulation. Measured: 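Imaged nuclear TNF reporter intensity, background removed, scaled per plate and to non-targeting control wells, as z-scores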. Direction: TNF reporter z-score, mean: higher = stronger Tnf promoter reporter signal; gene median z, three same-vendor siRNAs: higher = stronger Tnf reporter signal for the gene. Hit rule: 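An siRNA is called active when its mean z-score over replicates is at least +2 or at most -2; control wells get no call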.
This is a random part of about 3,800 deposited reagents. Of all reagents, about 2,200 (57%) were called active. 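Active means a strong reporter change in either direction; calls are per siRNA, not per gene; qiagen siRNAs gave weaker effects.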 Reagents against one gene are numbered here. Not all columns of the deposit are shown. No sequences are given here.

| target gene | reagent | TNF reporter z-score, mean | gene median z, three same-vendor siRNAs | Call |
| --- | --- | --- | --- | --- |
| Ctsw (GeneID 13041) | 1 | -1.36 | -2.97 | inactive |
| Ctsw (GeneID 13041) | 2 | -3.21 | -2.97 | active |
| Ctsw (GeneID 13041) | 3 | -3.96 | -2.97 | active |
| Mgat4b (GeneID 103534) | 1 | 0.717 | -2.76 | inactive |
| Mgat4b (GeneID 103534) | 2 | -2.76 | -2.76 | active |
| Mgat4b (GeneID 103534) | 3 | -4.26 | -2.76 | active |
| Mgat4b (GeneID 103534) | 4 | 1.49 | -1.02 | inactive |
| Mgat4b (GeneID 103534) | 5 | -1.44 | -1.02 | inactive |
| Mgat4b (GeneID 103534) | 6 | -1.89 | -1.02 | inactive |
| Nle1 (GeneID 217011) | 1 | 5.87 | -2.75 | active |
| Nle1 (GeneID 217011) | 2 | -2.75 | -2.75 | active |
| Nle1 (GeneID 217011) | 3 | -5.32 | -2.75 | active |
| Nle1 (GeneID 217011) | 4 | 0.255 | -1.25 | inactive |
| Nle1 (GeneID 217011) | 5 | -0.799 | -1.25 | inactive |
| Nle1 (GeneID 217011) | 6 | -3.76 | -1.25 | active |
| D6Ertd160e (GeneID 52223) | 1 | 2.53 | -1.29 | active |
| D6Ertd160e (GeneID 52223) | 2 | -1.48 | -1.29 | inactive |
| D6Ertd160e (GeneID 52223) | 3 | -2.15 | -1.29 | active |

2 entries already listed, arranged by “TNF reporter z-score, mean”, low to high:
| target gene | reagent | TNF reporter z-score, mean | gene median z, three same-vendor siRNAs | Call |
| --- | --- | --- | --- | --- |
| Nle1 (GeneID 217011) | 6 | -3.76 | -1.25 | active |
| D6Ertd160e (GeneID 52223) | 1 | 2.53 | -1.29 | active |

Further records follow.
| target gene | reagent | TNF reporter z-score, mean | gene median z, three same-vendor siRNAs | Call |
| --- | --- | --- | --- | --- |
| Tbca (GeneID 21371) | 1 | -1.93 | -3.23 | inactive |
| Tbca (GeneID 21371) | 2 | -3.23 | -3.23 | active |
| Tbca (GeneID 21371) | 3 | -4.64 | -3.23 | active |
| Tbca (GeneID 21371) | 4 | 3.76 | 0.613 | active |
| Tbca (GeneID 21371) | 5 | -0.289 | 0.613 | inactive |
| Tbca (GeneID 21371) | 6 | 0.0662 | 0.613 | inactive |
| Gclm (GeneID 14630) | 1 | 6.55 | -1.4 | active |
| Gclm (GeneID 14630) | 2 | -1.72 | -1.4 | inactive |
| Gclm (GeneID 14630) | 3 | -2.31 | -1.4 | active |
| Gclm (GeneID 14630) | 4 | -1.91 | -3.36 | inactive |
| Gclm (GeneID 14630) | 5 | -2.76 | -3.36 | active |
| Gclm (GeneID 14630) | 6 | -4.58 | -3.36 | active |
| Gstm3 (GeneID 14864) | 1 | -0.544 | -2.2 | inactive |
| Gstm3 (GeneID 14864) | 2 | -2.2 | -2.2 | active |
| Gstm3 (GeneID 14864) | 3 | -3.88 | -2.2 | active |
| Gstm3 (GeneID 14864) | 4 | 2.97 | -0.359 | active |
| Gstm3 (GeneID 14864) | 5 | -0.359 | -0.359 | inactive |
| Gstm3 (GeneID 14864) | 6 | -2.09 | -0.359 | active |
| Trmt9b (GeneID 319582) | 1 | 5.24 | -2.67 | active |
| Trmt9b (GeneID 319582) | 2 | -2.78 | -2.67 | active |
| Trmt9b (GeneID 319582) | 3 | -3.04 | -2.67 | active |
| Trmt9b (GeneID 319582) | 4 | 3.89 | -0.821 | active |
| Trmt9b (GeneID 319582) | 5 | 1.25 | -0.821 | inactive |
| Trmt9b (GeneID 319582) | 6 | -3.2 | -0.821 | active |
